Some results were stated once for a whole list of compounds, not compound by compound.
Key:
[1] = system: Beet Armyworm Spodoptera exigua; assay: Insecticidal assay 1, beet armyworm, 96-well diet plate; assay type: in vivo; conditions: S. exigua eggs and early instars; 2 microliters of 4 micrograms per microliter in DMSO per well on diet; 200 ppm piperonyl butoxide co-applied; assessed after 6 days at 29° C.
[2] = system: Common Fruit Fly Drosophila melanogaster Oregon Wild-Type; assay: Insecticidal assay 3, common fruit fly adults, 96-well agar plate; assay type: in vivo; conditions: adult D. melanogaster; 20 microliters of 4 micrograms per microliter in water:acetone (90:10) per well on agar/sucrose; assessed after 2 days at 22° C.

## N#Cc1c(NNc2c(Cl)cc(C(F)(F)F)cc2Cl)nc(C(F)(F)F)nc1C(F)(F)F [Compound 11, 4-[N′-(2,6-dichloro-4-trifluoromethyl-phenyl)-hydrazino]-2,6-bis-trifluoromethyl-pyrimidine-5-carbonitrile]
[1]
  insecticidal activity: significant insecticidal activity
[2]
  insecticidal activity: significant insecticidal activity

Reference: patent US8445500B2, “Pesticidal compositions” (Dow AgroSciences, LLC., priority 2007, dated 2013)
